Measurements taken from paper doi:10.1101/2021.07.21.453204.
No constants are given. Whether binding was seen depends on the method and setting. Some binding calls cover weakened binding; strength is not graded here. Where a sequence is shown, tags or fusion partners need not be part of it.

Legend:
Experiment in all cases: two-hybrid
[1] = target: T1, VIVIPAROUS1/ABI3-LIKE (VAL1), yeast two-hybrid fusion (Arabidopsis thaliana) (UniProt Q8W4L5)
T1 sequence: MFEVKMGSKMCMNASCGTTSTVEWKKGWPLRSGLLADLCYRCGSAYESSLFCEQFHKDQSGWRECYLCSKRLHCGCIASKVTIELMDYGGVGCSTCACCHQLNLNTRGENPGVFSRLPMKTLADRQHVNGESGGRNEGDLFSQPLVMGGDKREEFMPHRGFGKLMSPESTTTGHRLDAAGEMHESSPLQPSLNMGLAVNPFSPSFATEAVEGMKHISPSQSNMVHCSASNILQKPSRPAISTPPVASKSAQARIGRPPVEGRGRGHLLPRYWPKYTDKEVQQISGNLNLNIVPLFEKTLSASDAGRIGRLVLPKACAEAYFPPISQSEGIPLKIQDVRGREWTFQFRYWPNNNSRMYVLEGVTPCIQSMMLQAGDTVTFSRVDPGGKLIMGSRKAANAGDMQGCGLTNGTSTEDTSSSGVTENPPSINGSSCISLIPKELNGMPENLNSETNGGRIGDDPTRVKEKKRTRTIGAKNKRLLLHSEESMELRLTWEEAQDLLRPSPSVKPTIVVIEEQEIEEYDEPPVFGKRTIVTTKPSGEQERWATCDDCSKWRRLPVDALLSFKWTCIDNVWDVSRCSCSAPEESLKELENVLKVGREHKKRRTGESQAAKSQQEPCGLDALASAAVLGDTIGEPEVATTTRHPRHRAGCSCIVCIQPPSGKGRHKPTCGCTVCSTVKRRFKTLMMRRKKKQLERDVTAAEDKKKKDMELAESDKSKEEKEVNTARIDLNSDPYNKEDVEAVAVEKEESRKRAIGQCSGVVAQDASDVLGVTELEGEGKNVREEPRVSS

[2] = target: T2, RING1A, yeast two-hybrid fusion (Arabidopsis thaliana) (UniProt Q9FKW0)
T2 sequence: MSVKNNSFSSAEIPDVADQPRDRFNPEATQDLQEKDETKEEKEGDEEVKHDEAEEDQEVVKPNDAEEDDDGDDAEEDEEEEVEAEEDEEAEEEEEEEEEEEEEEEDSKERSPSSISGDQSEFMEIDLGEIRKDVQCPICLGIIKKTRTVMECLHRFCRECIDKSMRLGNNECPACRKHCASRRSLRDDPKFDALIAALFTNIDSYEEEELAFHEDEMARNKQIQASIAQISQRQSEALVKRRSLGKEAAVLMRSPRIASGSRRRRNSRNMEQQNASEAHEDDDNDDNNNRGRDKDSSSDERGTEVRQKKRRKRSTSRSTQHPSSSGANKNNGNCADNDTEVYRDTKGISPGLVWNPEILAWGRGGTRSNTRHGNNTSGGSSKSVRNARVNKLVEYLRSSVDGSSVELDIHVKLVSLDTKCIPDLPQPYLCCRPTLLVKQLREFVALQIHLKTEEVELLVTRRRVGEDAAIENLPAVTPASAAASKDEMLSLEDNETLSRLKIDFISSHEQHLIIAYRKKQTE

[3] = target: T3, RING1B, yeast two-hybrid fusion (Arabidopsis thaliana) (UniProt Q0WX00)
T3 sequence: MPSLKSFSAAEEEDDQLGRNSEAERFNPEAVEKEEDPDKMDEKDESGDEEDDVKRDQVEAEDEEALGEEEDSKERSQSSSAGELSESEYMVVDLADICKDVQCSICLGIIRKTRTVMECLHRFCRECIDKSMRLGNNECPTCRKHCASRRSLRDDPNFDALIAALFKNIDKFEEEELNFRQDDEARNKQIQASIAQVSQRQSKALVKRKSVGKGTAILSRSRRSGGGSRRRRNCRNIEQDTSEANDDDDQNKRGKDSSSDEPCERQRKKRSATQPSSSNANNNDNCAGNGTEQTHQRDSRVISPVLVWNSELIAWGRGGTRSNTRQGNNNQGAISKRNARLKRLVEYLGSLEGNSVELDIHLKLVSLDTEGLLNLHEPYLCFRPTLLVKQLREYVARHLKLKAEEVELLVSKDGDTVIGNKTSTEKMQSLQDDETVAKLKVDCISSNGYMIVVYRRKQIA

- binding [1]: no binding
- binding [2]: binds
- binding [3]: binds
B1: NODULIN HOMEOBOX (NDX), yeast two-hybrid fusion (protein, UniProt F4JI44 1-913)
chain: MVRLLQPKHMVQAVNALHWRNSVEFHKLLKDNGDFSICFNSEQVLPQKISVEKMVKMLPRHLIAVVMTPNKDGKSRYILCGIRLLQTLCDLTPRNAKLEQVLLDDVKLSAQMIDLVILVIIALGRNRKESCNSNKESLLEATLVASCLHLFHGFISPNSQDLVLVLLAHPRVDVFIDSAFGAVLNVVISLKAKLLYRQTDSPKKLGASSVEEVNFHCQQAEAALQFLHSLCQHKPFRERVAKNKELCGKGGVLRLAQSILSLTITPEFVGATVTIASTSRMKAKVLSILQHLFEAESVSFLDEVANAGNLHLAKTVASEVLKLLRLGLSKASMATASPDYPMGFVLLNAMRLADVLTDDSNFRSFFTEHFSMVLSAVFCLSHGDFLSMLCSSDLSSREDDANVDYDLFKSAGWILSVFSSSGQSVTPQFKLSLQNNLTMSSYAHQRTSLFIKMIANLHCFVPNVCQEQDRNRFIQNVMSGLRKDPSSILIKMLPGSSYTPVAQRGTGVCRNLGSLLRHAESLIPSSLNEEDFLLLRVFCDQLQPLIHSEFEESQVQVKVKKLFALLYIGFTILWLICLVTLIQDIEGRGGNLSGKLKELLNLNNEEASEDCDVRVEGVMTKQGVNEEIDTVERLKESDADASNLETSGSDTSSNRGKGLVEEGELVQNMSKRFKGSASGEVKEDEKSETFLVFEKQKKKRKRSIMNADQMGMIEKALAEEPDLQRNSASRQLWADKISQKGSEVITSSQLKNWLNNRKAKLARANKQTGPAHDNNSSGDLPESPGDENTWQQKPSTPIKDQTVTETPKTGENLMRTSSSSEEGIKQGQQVRLMDERGDEIGKGTVLRTDGEWNGLSLETRQICVVDVMELSESYDGSKKMIPYGSDDVGRTFTEANSRFGVMRVAWDVNKLQY
